Experimental data as given in US7517658B2, “Methods for preparing compositions using a SNORF33 receptor” (H. Lundbeck A/S, priority 1999, dated 2009).

By UniProt entry, the sequences of proteins in these tests, tags left out.
UniProt Q923Y9, whole entry: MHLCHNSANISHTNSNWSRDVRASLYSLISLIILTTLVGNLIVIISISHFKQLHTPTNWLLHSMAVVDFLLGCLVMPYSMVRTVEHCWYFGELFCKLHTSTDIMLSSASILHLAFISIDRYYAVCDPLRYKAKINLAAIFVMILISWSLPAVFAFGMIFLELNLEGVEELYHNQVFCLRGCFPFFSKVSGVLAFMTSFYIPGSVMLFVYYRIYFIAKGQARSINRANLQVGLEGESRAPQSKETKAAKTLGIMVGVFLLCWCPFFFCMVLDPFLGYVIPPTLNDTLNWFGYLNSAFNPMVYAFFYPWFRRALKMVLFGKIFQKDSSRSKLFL

Biological target: rSNORF33 (Rattus norvegicus, UniProt Q923Y9)
Assay: Intracellular cAMP release in rSNORF33-transfected COS-7 cells
Format: cell-based
Design: expressed in transfected cells; host or cells: COS-7 (transient)
Details: transiently transfected COS-7 cells; 3–8 experiments; read-out: Mean EC50 ± S.E.M., stimulation of rSNORF33 measured by intracellular cAMP release
Description: The receptor-mediated stimulation or inhibition of cyclic AMP (cAMP) formation may be assayed in cells expressing the mammalian receptors. Cells are plated in 96-well plates or other vessels and preincubated in a buffer such as HEPES buffered saline (NaCl (150 mM), CaCl2 (1 mM), KCl (5 mM), glucose (10 mM)) supplemented with a phosphodiesterase inhibitor such as 5 mM theophylline, with or without protease inhibitor cocktail (For example, a typical inhibitor cocktail contains 2 μg/ml aprotinin, […] leupeptin, and 10 μg/ml phosphoramidon.) for 20 min at 37° C., in 5% CO2. Test compounds are added with or without […] forskolin and incubated for an additional 10 min at 37° C. The medium is then aspirated and the reaction stopped by the addition of 100 mM HCl or other methods. The plates are stored at 4° C. for 15 min, and the cAMP content in the stopping solution is measured by radioimmunoassay. Radioactivity may be quantified using a gamma counter equipped with data reduction software. […]
COS-7 cells were transiently transfected with rSNORF33 gene using the calcium phosphate method and plated in 96-well plates. […] For cAMP measurement, plates were thawed and the cAMP content in each well was measured by radioimmunoassay cAMP Scintillation Proximity Assay (Amersham Pharmacia Biotech). Radioactivity was quantified using microbeta Trilux counter (Wallac).

EC50: 5.52 ± 3.52 µM
SMILES: CNCCC(Oc1ccc(C(F)(F)F)cc1)c1ccccc1 (stereo not shown) [Fluoxetine]
